From PubChem BioAssay AID1508633 (National Center for Advancing Translational Sciences (NCATS), 2021)
Inconclusive results, whose numbers are uncertain, are shown with a selection of clear calls. Potencies beside an inconclusive call are fits to weak or partial responses and may not hold up. The source made the active and inactive calls. Calls follow the shape of the dose curve; as a rule, active = well fitted inhibition curve with a large enough effect; inconclusive = small, poorly fitted or top-dose-only effect; inactive = no such curve, though single readings can be large or run the other way. *1 amine or outer side, *2 acyl side, *3 side chain or, on linkers, in order; H or OH if unused. Where a SMILES comes first, the peptide text is derived from it. [ ]: non-standard residue; d: D form. X1 = O=C([C@@H](CC(O)CCl)O[*:1])[*:2]; aIle = CC[C@@H](C)[C@H](N)C(=O)O; NMeV = CN[C@H](C(=O)O)C(C)C; NMeA = CN[C@@H](C)C(=O)O; βAla = NCCC(=O)O

Tested on: zebrafish ABCB5 (Abcb5) multidrug transporter
Assay: qHTS for characterization and localization of zebrafish homologs of the human ABCB1 multidrug transporter: ABCB5 transfected cells
Conditions: CellTiter-Glo luminescence viability, 72 h
Excerpt: The zebrafish has emerged as a potential model to study the blood-brain barrier (BBB) given its similarities with mammalian systems. However, little information has been available with regard to homologous ATP-binding cassette transporters expressed at the zebrafish BBB. Two transporters that are highly expressed at the human BBB are P-glycoprotein (P-gp, encoded by the ABCB1 gene) and ABCG2 (encoded by the ABCG2 gene). In this study, we focus on characterization of P-gp homologs in the zebrafish, which has two genes that are homologous to human ABCB1 - abcb4 and abcb5. We generated stably-transfected cell lines to determine their substrate specificities. […] Zebrafish abcb4 also colocalized with claudin 5 expression in brain endothelial cells.
A high-throughput screen was performed as previously described on empty vector transfected cells, P-gp-overexpressing MDR-19 cells and cells transfected with full-length zebrafish abcb4 (ZF Abcb4) or abcb5 (ZF Abcb5). Briefly, cells were plated into 1536-well plates at a density of 500 cells/well in 5 uL media. […] CellTiter-Glo reagent (Promega) was dispensed into the wells, incubated for 5 min and luminescence was read on a ViewLux instrument (Perkin-Elmer). […]

SMILES | Potency
CC[C@@H](C)[C@@H]1NC(=O)[C@@H]2CCCN2C(=O)[C@@H](CC(O)CCl)OC(=O)CCNC(=O)[C@H](C)N(C)C(=O)[C@H](C(C)C)N(C)C1=O (some centres not stated) (cyclo([NMeA][βAla][X1]P[aIle][NMeV])) | inconclusive: 1750 nM [inhibitor, partial curve, poor fit]
C=CCON=C(C[C@H]1O[C@@H]2O[C@]3(C)CC[C@@H]4[C@H](C)CC[C@@H]([C@H]1C)[C@@]24OO3)[C@H]1O[C@@H]2O[C@]3(C)CC[C@H]4[C@H](C)CC[C@@H]([C@@H]1C)[C@@]24OO3 | active: 526 nM
